PubChem BioAssay AID1259308, NCATS, 2017
Purpose: 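Candidate targets for better recombinant protein yield in mammalian cells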 (primary screen). System: human HEK293 embryonic kidney cells stably expressing firefly luciferase (HEK-CMV-Luc2-Hygro). Reagent: single siRNA against human genes, 0.8 pmol siRNA per well. Time to read-out: 72 h. Read-out: 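Reporter luminescence and viable-cell signal on separate replicate plates, given as percent of non-targeting control and median/MAD z-scores, plus per-cell luciferase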. Scale: total luciferase, z-score and total luciferase, % of control: higher = more reporter protein produced; luciferase per cell, z-score: higher = more reporter output per viable cell; viable cells, % of control: higher = more viable cells. Active means: 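Active when the median/MAD z-score for overall luciferase is greater than 3; a gene was taken forward for validation with new siRNAs if at least two of its three siRNAs passed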. Calls: active = raised luciferase; inactive = no rise.
Shown is an unselected part of about 59,000 reagents tested. About 1,510 of all reagents (2.6%) were called active. 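Calls use total luciferase alone and ignore viability, so some active siRNAs may act by altering cell number.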 A number with no mark means an inactive call. The numbers tell different reagents against one gene apart.

| target | reagent no. | total luciferase, z-score | total luciferase, % of control | luciferase per cell, z-score | viable cells, % of control |
| --- | --- | --- | --- | --- | --- |
| SSBP4 (single stranded DNA binding protein 4) | 1 | -1.77 | 46.6 | -1.45 | 76.2 |
| SSBP4 (single stranded DNA binding protein 4) | 2 | -0.0498 | 80.9 | 0.202 | 85.7 |
| SSBP4 (single stranded DNA binding protein 4) | 3 | 4.09 (active) | 163 | 3.07 | 81.2 |
| RBPJL | 1 | -0.603 | 69.9 | 0.249 | 73.1 |
| RBPJL | 2 | 0.329 | 88.4 | 0.36 | 89.9 |
| RBPJL | 3 | 1.43 | 110 | 1.18 | 90.2 |
| PCED1B (PC-esterase domain containing 1B) | 1 | -0.418 | 73.6 | -0.0255 | 82.8 |
| PCED1B (PC-esterase domain containing 1B) | 2 | 2.34 | 129 | 3.25 | 61 |
| PCED1B (PC-esterase domain containing 1B) | 3 | -0.434 | 73.3 | -0.489 | 93.1 |
| SCAF8 (SR-related CTD associated factor 8) | 1 | -0.548 | 71 | 0.456 | 70.4 |
| SCAF8 (SR-related CTD associated factor 8) | 2 | -0.331 | 75.3 | -0.0876 | 86.1 |
| SCAF8 (SR-related CTD associated factor 8) | 3 | 1.72 | 116 | 1.05 | 98.4 |
| DCDC2C (doublecortin domain containing 2C) | 1 | 0.46 | 91 | -0.214 | 108 |
| DCDC2C (doublecortin domain containing 2C) | 2 | -1.42 | 53.6 | -0.139 | 62.1 |
| DCDC2C (doublecortin domain containing 2C) | 3 | -0.794 | 66.1 | -0.916 | 94 |
| KLHL25 (kelch like family member 25) | 1 | 1.86 | 119 | 2.39 | 70.8 |
| KLHL25 (kelch like family member 25) | 2 | -0.153 | 78.8 | 0.509 | 77.1 |
| KLHL25 (kelch like family member 25) | 3 | 0.399 | 89.8 | 1.06 | 75.9 |
| IFNA7 (interferon alpha 7) | 1 | 0.0311 | 82.5 | -0.0973 | 94.6 |
| IFNA7 (interferon alpha 7) | 2 | 3.7 (active) | 155 | 2.7 | 85.3 |
| IFNA7 (interferon alpha 7) | 3 | 0.488 | 91.6 | 0.416 | 91.8 |
| RGS16 (regulator of G protein signaling 16) | 1 | 0.569 | 93.2 | 1.44 | 71.4 |
| RGS16 (regulator of G protein signaling 16) | 2 | -0.0145 | 81.6 | -0.543 | 105 |
| RGS16 (regulator of G protein signaling 16) | 3 | -0.416 | 73.6 | -1.34 | 117 |
| KLK2 (kallikrein related peptidase 2) | 1 | -1.23 | 57.5 | -1.47 | 94.6 |
| KLK2 (kallikrein related peptidase 2) | 2 | -1.88 | 44.5 | -1.63 | 76.4 |
| KLK2 (kallikrein related peptidase 2) | 3 | 0.155 | 85 | 0.801 | 76.9 |
| ZDHHC3 (zDHHC palmitoyltransferase 3) | 1 | -0.507 | 71.8 | 0.308 | 74 |
| ZDHHC3 (zDHHC palmitoyltransferase 3) | 2 | -0.516 | 71.6 | -0.508 | 91.5 |
| ZDHHC3 (zDHHC palmitoyltransferase 3) | 3 | -0.0525 | 80.8 | -0.183 | 94.8 |
| CHMP7 (charged multivesicular body protein 7) | 1 | 1.09 | 103 | 0.138 | 111 |
| CHMP7 (charged multivesicular body protein 7) | 2 | 0.806 | 97.9 | 0.185 | 104 |
| CHMP7 (charged multivesicular body protein 7) | 3 | 0.45 | 90.8 | 0.0825 | 99.3 |
| GALC (galactosylceramidase) | 1 | 0.18 | 85.5 | -0.0789 | 97.5 |
| GALC (galactosylceramidase) | 2 | 0.233 | 86.5 | -0.267 | 104 |
| GALC (galactosylceramidase) | 3 | 0.464 | 91.1 | -0.653 | 121 |
| H2BC13 (H2B clustered histone 13) | 1 | -0.0631 | 80.6 | -0.216 | 95.4 |
| H2BC13 (H2B clustered histone 13) | 2 | -2.06 | 40.9 | -2.59 | 90.5 |
| H2BC13 (H2B clustered histone 13) | 3 | 0.433 | 90.5 | 0.243 | 94.9 |

5 of these entries in another layout:
{"target": "KLHL25 (kelch like family member 25)", "reagent no.": 3, "total luciferase, z-score": 0.399, "total luciferase, % of control": 89.8, "luciferase per cell, z-score": 1.06, "viable cells, % of control": 75.9}
{"target": "IFNA7 (interferon alpha 7)", "reagent no.": 1, "total luciferase, z-score": 0.0311, "total luciferase, % of control": 82.5, "luciferase per cell, z-score": -0.0973, "viable cells, % of control": 94.6}
{"target": "IFNA7 (interferon alpha 7)", "reagent no.": 2, "total luciferase, z-score": "3.7 (active)", "total luciferase, % of control": 155, "luciferase per cell, z-score": 2.7, "viable cells, % of control": 85.3}
{"target": "IFNA7 (interferon alpha 7)", "reagent no.": 3, "total luciferase, z-score": 0.488, "total luciferase, % of control": 91.6, "luciferase per cell, z-score": 0.416, "viable cells, % of control": 91.8}
{"target": "RGS16 (regulator of G protein signaling 16)", "reagent no.": 1, "total luciferase, z-score": 0.569, "total luciferase, % of control": 93.2, "luciferase per cell, z-score": 1.44, "viable cells, % of control": 71.4}
